Results on two molecules are retold here after publication PMC7993706.

Protein sequences, listed by entry. Tags and fused reporters are not part of them.
UniProt P26361: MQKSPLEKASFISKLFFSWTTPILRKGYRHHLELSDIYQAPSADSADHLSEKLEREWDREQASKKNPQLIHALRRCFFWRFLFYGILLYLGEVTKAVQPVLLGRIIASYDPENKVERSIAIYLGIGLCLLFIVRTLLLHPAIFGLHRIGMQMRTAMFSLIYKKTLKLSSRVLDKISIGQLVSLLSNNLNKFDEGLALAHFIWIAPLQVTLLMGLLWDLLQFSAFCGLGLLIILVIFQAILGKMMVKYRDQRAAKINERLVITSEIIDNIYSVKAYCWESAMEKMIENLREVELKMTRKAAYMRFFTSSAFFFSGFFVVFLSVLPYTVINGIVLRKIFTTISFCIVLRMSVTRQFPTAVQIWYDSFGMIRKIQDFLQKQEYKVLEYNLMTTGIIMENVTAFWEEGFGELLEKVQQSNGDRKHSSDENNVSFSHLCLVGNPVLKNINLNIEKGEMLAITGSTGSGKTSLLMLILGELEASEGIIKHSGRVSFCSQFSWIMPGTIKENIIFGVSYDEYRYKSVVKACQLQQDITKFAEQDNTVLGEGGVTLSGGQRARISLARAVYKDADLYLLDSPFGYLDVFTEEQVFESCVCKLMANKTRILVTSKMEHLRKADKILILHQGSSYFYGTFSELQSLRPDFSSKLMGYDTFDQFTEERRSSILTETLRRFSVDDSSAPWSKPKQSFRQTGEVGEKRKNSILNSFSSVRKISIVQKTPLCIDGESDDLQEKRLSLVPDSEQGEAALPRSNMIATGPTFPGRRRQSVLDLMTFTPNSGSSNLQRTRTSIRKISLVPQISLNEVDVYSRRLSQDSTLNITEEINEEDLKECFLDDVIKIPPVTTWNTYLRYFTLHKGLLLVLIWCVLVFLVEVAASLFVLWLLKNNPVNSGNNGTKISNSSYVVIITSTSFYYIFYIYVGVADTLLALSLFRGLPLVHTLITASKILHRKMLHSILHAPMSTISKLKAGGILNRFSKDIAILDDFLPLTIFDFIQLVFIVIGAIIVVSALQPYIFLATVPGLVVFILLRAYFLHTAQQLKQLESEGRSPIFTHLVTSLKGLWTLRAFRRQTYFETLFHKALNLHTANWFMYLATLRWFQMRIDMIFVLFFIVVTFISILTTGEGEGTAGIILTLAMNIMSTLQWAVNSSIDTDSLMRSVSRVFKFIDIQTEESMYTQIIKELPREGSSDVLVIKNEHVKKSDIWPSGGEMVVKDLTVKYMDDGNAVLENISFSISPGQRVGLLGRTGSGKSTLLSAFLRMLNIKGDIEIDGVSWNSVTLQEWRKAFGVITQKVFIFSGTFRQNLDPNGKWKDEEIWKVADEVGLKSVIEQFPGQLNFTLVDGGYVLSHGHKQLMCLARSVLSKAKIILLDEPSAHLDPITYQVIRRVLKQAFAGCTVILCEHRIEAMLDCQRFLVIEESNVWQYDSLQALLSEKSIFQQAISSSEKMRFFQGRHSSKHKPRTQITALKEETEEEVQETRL

Results are given in words; binding and its absence hold for the method and conditions named. In cells and extracts the contact can be indirect. Some entries that bind do so weakly or less than the wild type.

Assay [1] concerns the target T1, Dvl2 (mouse (endogenous in kidney tissue)) (UniProt Q60838).
T1 sequence: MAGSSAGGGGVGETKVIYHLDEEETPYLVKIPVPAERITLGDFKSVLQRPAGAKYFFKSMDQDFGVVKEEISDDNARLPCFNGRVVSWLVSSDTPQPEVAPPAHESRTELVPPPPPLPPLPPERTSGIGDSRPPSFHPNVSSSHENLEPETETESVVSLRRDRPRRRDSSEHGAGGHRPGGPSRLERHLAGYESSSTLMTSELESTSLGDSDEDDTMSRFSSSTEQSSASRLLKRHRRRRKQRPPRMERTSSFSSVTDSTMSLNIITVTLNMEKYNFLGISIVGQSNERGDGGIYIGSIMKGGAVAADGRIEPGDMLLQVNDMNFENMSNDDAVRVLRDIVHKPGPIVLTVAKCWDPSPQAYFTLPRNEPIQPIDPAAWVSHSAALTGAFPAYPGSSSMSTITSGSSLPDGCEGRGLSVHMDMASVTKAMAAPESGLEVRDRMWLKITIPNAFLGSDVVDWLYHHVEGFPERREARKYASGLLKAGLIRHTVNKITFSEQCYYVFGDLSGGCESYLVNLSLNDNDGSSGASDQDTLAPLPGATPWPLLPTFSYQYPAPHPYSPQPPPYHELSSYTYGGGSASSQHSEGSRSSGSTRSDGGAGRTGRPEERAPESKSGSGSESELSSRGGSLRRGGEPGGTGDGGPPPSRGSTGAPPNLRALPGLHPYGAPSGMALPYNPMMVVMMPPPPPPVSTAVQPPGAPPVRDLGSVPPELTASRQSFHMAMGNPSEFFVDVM
Kind of assay: co-IP; kidney tissue lysates (RIPA buffer) of T1D (STZ) mice and controls; immunoprecipitated with IgG (negative control), anti-CFTR or anti-Dvl2 antibodies on Dynabeads Protein G; blotted with anti-CFTR and anti-Dvl2.

The target of assay [2] is Cystic fibrosis transmembrane conductance regulator (CFTR) (mouse (endogenous in kidney tissue)) (UniProt P26361). The assay is described as above.

Consider “Cystic fibrosis transmembrane conductance regulator (CFTR) (from UniProt P26361 1-1476)”, for which the binding entry in assay [1] was “binds”.

B1: Dvl2 (protein, UniProt Q60838 1-736)
chain: MAGSSAGGGGVGETKVIYHLDEEETPYLVKIPVPAERITLGDFKSVLQRPAGAKYFFKSMDQDFGVVKEEISDDNARLPCFNGRVVSWLVSSDTPQPEVAPPAHESRTELVPPPPPLPPLPPERTSGIGDSRPPSFHPNVSSSHENLEPETETESVVSLRRDRPRRRDSSEHGAGGHRPGGPSRLERHLAGYESSSTLMTSELESTSLGDSDEDDTMSRFSSSTEQSSASRLLKRHRRRRKQRPPRMERTSSFSSVTDSTMSLNIITVTLNMEKYNFLGISIVGQSNERGDGGIYIGSIMKGGAVAADGRIEPGDMLLQVNDMNFENMSNDDAVRVLRDIVHKPGPIVLTVAKCWDPSPQAYFTLPRNEPIQPIDPAAWVSHSAALTGAFPAYPGSSSMSTITSGSSLPDGCEGRGLSVHMDMASVTKAMAAPESGLEVRDRMWLKITIPNAFLGSDVVDWLYHHVEGFPERREARKYASGLLKAGLIRHTVNKITFSEQCYYVFGDLSGGCESYLVNLSLNDNDGSSGASDQDTLAPLPGATPWPLLPTFSYQYPAPHPYSPQPPPYHELSSYTYGGGSASSQHSEGSRSSGSTRSDGGAGRTGRPEERAPESKSGSGSESELSSRGGSLRRGGEPGGTGDGGPPPSRGSTGAPPNLRALPGLHPYGAPSGMALPYNPMMVVMMPPPPPPVSTAVQPPGAPPVRDLGSVPPELTASRQSFHMAMGNPSEFFVDVM
Turning to B1, the binding result in assay [2] is reported as “binds”.
